From the RepoRT retention time repository (doi:10.1016/j.jhazmat.2019.121712)

Assay: Thermo Scientific Acclaim RSLC 120 C18, 100 × 2.1 mm, 2.2 µm, 30 °C; A: 90% water + 10% methanol + 0.01% formic acid + 5 mM ammonium formate; B: methanol + 0.01% formic acid + 5 mM ammonium formate; gradient (min/%B) 0.1/1 3/39 14/99.9 16/99.9
Settings: stereoisomer not certain

- LC retention time: 10.8 min
SMILES: O=C(c1ccccc1)c1ccccc1
